According to US8436183B2, “Synthetic multimerizing agents” (ARIAD Pharmaceuticals, Inc., priority 1994, dated 2013):
Some results were stated once for a whole list of compounds, not compound by compound.

Test system: FKBP12 fusion proteins (Gal4 DNA binding domain-3 FKBP12, 3 FKBP12-VP16) in human 293 cells
Assay: Cell-based transcription assays (transfection assay)

Substance | activity in cell-based transcription assays
Ethylenediamine N,N′-bis[2-(3-((1R)-1-(2S)-(3,3-dimethyl-1,2-dioxopentyl)piperidine-2-carbonyloxo)-3-(3,4-dimethoxyphenyl))propyl)phenoxy-acetamide] [Compound 64] | active
Ethylenediamine N,N′-bis[2-(3-((1R)-1-((2S)-(3,3-dimethyl-1,2-dioxopentyl)piperidine-2-carbonyloxo)-3-(3-pyridyl))propyl)phenoxyacetamide] [Compound 65] | active
N,N′-Dimethylethylenediamine N,N′-bis[2-(3-((1R)-1-((2S)-(3,3-dimethyl-1,2-dioxopentyl)piperidine-2-carbonyloxo)-3-(3,4-dimethoxyphenyl))propyl)phenoxy-acetamide] [Compound 66] | active
N,N′-Dimethylethylenediamine N,N′-bis[2-(3-((1R)-1-((2S)-(3,3-dimethyl-1,2-dioxopentyl)piperidine-2-carbonyloxo)-3-(3-pyridyl))propyl)phenoxyacetamide] [Compound 67] | active
